Out of some 400,000 compounds screened, about 5,500 (1.4%) were called active. This list was built around the results that the source calls inconclusive (neither active nor inactive); the mix of calls is not that of the screen. Calls come from the whole dose curve; as a rule, active = well fitted cell-killing curve with a large enough effect; inconclusive = small, poorly fitted or top-dose-only effect, or effect the other way; inactive = flat fitted curve, though single readings scatter. Potencies of inconclusive entries are doubtful fits and often do not repeat.
Test: qHTS assay for MDR1-selective chemotherapeutics: Primary screen using the parental adenocarcinoma cell KB-3-1; note: nearly all actives have a fitted effect of over 60% in size
Details: KB-3-1 viability, CellTiter-Glo ATP luminescence, 72 h; activity change, negative = cytotoxic: at 46.1 µM (top of the series)
Method in brief: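 Cells are dispensed, compounds pinned in, plates held at 37 °C for 72 h, then CellTiter-Glo is added and luminescence read after 10 minutes. Cell line: parental KB-3-1 in phenol-red-free DMEM, 10% FBS.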
% is set by controls: 0 for no effect and ±100 for the full control effect; potency is the fitted concentration of half-maximal effect.

Row | SMILES | Potency | activity change, negative = cytotoxic
1 | Cc1noc(C)c1C(=O)Nc1ccccc1N1CCCC1 | inconclusive: 13 µM [rising, partial curve, poor fit] | –
2 | O=C(Nc1ccc(N2CCOCC2)c(S(=O)(=O)Nc2ccc(Cl)cc2)c1)c1cnccn1 | inactive | –
3 | CCn1ncc(Br)c1C(=O)Nc1ccc(C(C)C)cc1 | inactive | –
4 | O=C(CSc1ccsc1[N+](=O)[O-])N1CCCCC1 | active: 18.4 µM | –
5 | CCCC(=O)NC(c1ccc(OC)cc1)c1ccc2cccnc2c1O (stereo not drawn) | inconclusive: 3.66 µM [cytotoxic, full curve, poor fit] | –
6 | CN(C)CCCNC(=O)C(=O)Nc1ccc2c(c1)N(S(=O)(=O)c1cccs1)CCC2 | inconclusive: 29.1 µM [cytotoxic, single point] | –
7 | CCCCn1c(N)c(NCCC)c(=O)[nH]c1=O | inconclusive: 23.1 µM [rising, single point] | –
8 | Cc1c2ccccc2nc2c(F)c(NC(C)C)c(F)c(F)c12 | inconclusive: 29.1 µM [cytotoxic, single point] | –
9 | CC1(C(=O)NCc2ccccc2)Cc2c(-c3ccc(C(N)=O)cc3)ccnc2O1 (stereo not drawn) | active: 8.2 µM | –
10 | COc1ccc(C(CC(=O)c2ccc(C)cc2)Nc2ccc([N+](=O)[O-])cc2)cc1 (stereo not drawn) | inconclusive: 29.1 µM [cytotoxic, partial curve, poor fit] | –
11 | COc1cc([N+](=O)[O-])ccc1-c1ccc(/C=N\n2cnnc2)o1 | inactive | –
12 | COc1cccc(/C=N/NC(=O)NC23CC4CC(CC(C4)C2)C3)c1O | inconclusive: 20.6 µM [cytotoxic, single point] | –
13 | COc1ccc(NC(=O)c2oc3ccccc3c2NC(=O)COc2ccccc2OC)c(OC)c1 | inactive | –
14 | O=[N+]([O-])c1ccc(N2CCN(S(=O)(=O)c3ccccc3)CC2)cc1 | – | inconclusive: -16.4%
15 | CC1(C)N=C(N)N=C(N)N1c1ccc(Oc2ccc(Cl)cc2)c(Cl)c1 | active: 0.731 µM | –
16 | CC(C)(C)c1ccc(C(=O)NC2CCN(Cc3ccccc3)CC2)cc1 | inconclusive: 20.6 µM [cytotoxic, single point] | –
17 | Cc1ccc(F)c(CNC(=O)C2(C)CCCN2C(=O)C(C)C)c1F (stereo not drawn) | inactive | –
18 | O=C(CCn1ccc2cc(S(=O)(=O)N3CCCC3)ccc21)NCc1cccc(Br)c1 | inconclusive: 20.6 µM [cytotoxic, single point] | –
19 | Cc1cccc(OCC(=O)Nc2ccccc2N2CCCC2)c1C | inconclusive: 16.4 µM [cytotoxic, single point] | –
20 | O=C(NCC1CCCC(CNC(=O)Nc2ccc(Cl)cn2)C1)Nc1ccc(Cl)cn1 (stereo not drawn) | inconclusive: 29.1 µM [cytotoxic, single point] | –
21 | Fc1ccc(-n2ncc3c(SCc4cccnc4)ncnc32)cc1 | inconclusive: 18.4 µM [cytotoxic, partial curve, poor fit] | –
22 | NC(=O)c1ccc(NCc2ccco2)c([N+](=O)[O-])c1 | inconclusive: 32.6 µM [cytotoxic, single point] | –
23 | Cc1c(C)n(Cc2ccccc2)c2ccc(C(=O)NCc3ccco3)cc12 | inconclusive: 16.4 µM [cytotoxic, single point] | –

3 entries from above, arranged by SMILES length, ascending:
Row | SMILES | Potency | activity change, negative = cytotoxic
21 | Fc1ccc(-n2ncc3c(SCc4cccnc4)ncnc32)cc1 | inconclusive: 18.4 µM [cytotoxic, partial curve, poor fit] | –
17 | Cc1ccc(F)c(CNC(=O)C2(C)CCCN2C(=O)C(C)C)c1F (stereo not drawn) | inactive | –
11 | COc1cc([N+](=O)[O-])ccc1-c1ccc(/C=N\n2cnnc2)o1 | inactive | –

Next part.

Row | SMILES | Potency | activity change, negative = cytotoxic
24 | Cc1ccc(/C=C2\SC(=S)N(CCCC(=O)Nc3ccccn3)C2=O)cc1 | inconclusive: 29.1 µM [cytotoxic, single point] | –
25 | COc1cc(NC(=O)c2ccccc2NS(=O)(=O)c2ccc(Cl)s2)cc(OC)c1 | inconclusive: 29.1 µM [cytotoxic, single point] | –
26 | CCCCN1CC(C)(C)[C@H](CC(=O)NC)C1=O | inactive | –
27 | CSC1=NSC2=NC(=O)/C(=C\c3coc4ccccc4c3=O)C(=N)N12 | inconclusive: 29.1 µM [rising, single point] | –
28 | Cc1cc2c(cc1C)C(c1cccc(F)c1)CC(=O)N2 (stereo not drawn) | inconclusive: 25.9 µM [cytotoxic, single point] | –
29 | Cc1cc(NC(=O)c2cc(-c3ccc(Cl)cc3)on2)nn1Cc1ccc(Cl)cc1 | inconclusive: 9.2 µM [cytotoxic, partial curve] | –
30 | Cc1c(C(=O)Nc2nonc2-c2ccc(F)cc2)oc2ccc(F)cc12 | active: 18.4 µM | –
31 | O=C(Nc1ccccc1)/C(=C/c1ccc2c(c1)OCO2)NC(=O)c1ccco1 | inactive | –
32 | Cc1cc(NC(=O)CSc2nc3sc4c(c3c(=O)n2C)CCCC4)no1 | inactive | –
33 | OCC[C@@H]1C[C@@H](O)[C@H](O)[C@@]2(OCCc3ccccc32)O1 | inactive | –
34 | COc1ccc(CNC(=O)c2ccc[nH]2)cc1 | inconclusive: 11.6 µM [rising, partial curve, poor fit] | –
35 | CC1C(=O)N(Cc2ccc([N+](=O)[O-])cc2)c2ccccc2N1C(=O)c1c(F)cccc1F (stereo not drawn) | inactive | –
36 | CC[C@@H](C(=O)[C@@H](C)[C@@H](O)[C@H](C)[C@@H]1O[C@@H]([C@@H](CC)C(=O)O)CC[C@@H]1C)[C@H]1O[C@]2(C=C[C@@H](O)[C@]3(CC[C@@](C)([C@H]4CC[C@](O)(CC)[C@H](C)O4)O3)O2)[C@H](C)C[C@@H]1C | inconclusive: 25.9 µM [cytotoxic, single point] | –
37 | COc1ccc(-c2cn3ccccc3n2)cc1OC | inconclusive: 4.11 µM [cytotoxic, partial curve, poor fit] | –
38 | COc1ccc(Cl)cc1C(=O)Nc1ccc(-c2nnc3n2CCCCC3)cc1 | inactive | –
39 | O=C(NCCc1ccccc1)C(=O)NCC1CCCN1S(=O)(=O)c1cccs1 (stereo not drawn) | inconclusive: 23.1 µM [cytotoxic, single point] | –
40 | COc1cccc(Cn2c(=O)n(-c3ccccc3C)c(=O)c3c2c2cc(C)ccc2n3C)c1 | inconclusive: 5.17 µM [cytotoxic, partial curve, poor fit] | –
41 | CC(C)(C)c1cc(=O)n2c(C#N)c(C#N)nc2[nH]1 | inactive | –
42 | CCN(CC)C(=O)[C@H]1CC(CC(=O)NC/C=C(\C)CCC=C(C)C)C(=O)N2CCc3c([nH]c4ccc(OC)cc34)[C@]12C (stereo partly drawn) | inconclusive: 29.1 µM [cytotoxic, single point] | –
43 | Cc1nnc2sc(SCc3cccc(Cl)c3)nn2c1=O | inactive | –
44 | O=C(CCCCCn1c(=S)[nH]c2ccc(N3CCOCC3)cc2c1=O)NCc1cccc(Cl)c1 | inactive | –
45 | O=c1ccc(-c2ccc(S(=O)(=O)Nc3cccc([N+](=O)[O-])c3)s2)n[nH]1 | inconclusive: 0.0517 µM [rising, full curve] | –
46 | CCCOc1c(Cl)cc(C(=O)N(Cc2cccc(OC)c2)C2CCS(=O)(=O)C2)cc1Cl (stereo not drawn) | inactive | –

Row | SMILES | Potency | activity change, negative = cytotoxic
47 | CN(C)S(=O)(=O)c1ccc(C(=O)Nc2nc(-c3cccs3)cs2)cc1 | inactive | –
48 | CC(C)C(=O)NNC(=O)CC(=O)Nc1ccccc1C(=O)O | inactive | –
49 | Cc1ccc(-n2nc3cc(C)c(NC(=S)NC(=O)/C=C/c4ccco4)cc3n2)cc1 | inactive | –
50 | CC(C)(C)c1csc(NC(=O)c2ccncc2)n1 | inconclusive: 9.2 µM [cytotoxic, partial curve, poor fit] | –
51 | CC[C@]12c3[nH]c4ccc(Cl)cc4c3CCN1C(=O)[C@@H](CC(=O)NCCCn1ccnc1)C[C@@H]2C(=O)N1CCN(C(=O)c2ccco2)CC1 | inactive | –
52 | Cc1ccc(N2C(=O)CN(Cc3sccc3C)C2=S)cc1C | inconclusive: 29.1 µM [cytotoxic, single point] | –
53 | COc1ccc(C(=O)NCCCNC(=O)c2cnccn2)cc1Br | inactive | –
54 | CC(C)CCC(CCNCc1ccccn1)c1ccc(Cl)cc1 (stereo not drawn) | inconclusive: 29.1 µM [cytotoxic, single point] | –
55 | CC1(C)CC(NC(=O)C2CCN(S(=O)(=O)c3cccc(C(F)(F)F)c3)CC2)CC(C)(C)N1 | inactive | –
56 | CC(C)(C)c1ccc(C(=O)c2c[nH]c(C(=O)NCc3cccnc3)c2)cc1 | inconclusive: 16.4 µM [cytotoxic, partial curve] | –
57 | Cc1ccccc1-n1c(C)nc2ccccc21 | inactive | –
58 | COc1cccc(-c2cc(C(F)(F)F)nc(N3CCN(c4ccccc4)CC3)n2)c1 | inconclusive: 29.1 µM [cytotoxic, single point] | –
59 | Cc1cc(/C=N/NC(=O)c2ccncc2)c(C)n1-c1cccc(C(F)(F)F)c1 | inconclusive: 29.1 µM [cytotoxic, single point] | –
60 | COc1ccc(C)cc1N(C(=O)c1snc(C(N)=O)c1N)C(C(=O)NC1CCCCC1)c1ccc(C)o1 (stereo not drawn) | inconclusive: 29.1 µM [cytotoxic, single point] | –
61 | Cc1ccc(-n2c(N)c(C(=O)Nc3c(C)n(C)n(-c4ccccc4)c3=O)c3nc4ccccc4nc32)cc1 | inconclusive: 32.6 µM [cytotoxic, partial curve, poor fit] | –
62 | Cc1cccc2c(=O)cc(CSc3ccccc3NC(=O)c3cccc(F)c3)[nH]c12 | inactive | –
63 | CN(C)C(CNC(=O)c1cccc(S(=O)(=O)N2CCN(c3ccc(F)cc3)CC2)c1)c1ccccc1 (stereo not drawn) | inconclusive: 20.6 µM [cytotoxic, single point] | –
64 | C[C@@H]1CN([C@@H](C)CO)S(=O)(=O)c2ccc(Br)cc2O[C@@H]1CN(C)C(=O)C1CC1 | inactive | –
65 | O=C(Cc1ccc(Br)cc1)Nc1ncc([N+](=O)[O-])s1 | active: 20.6 µM | –
66 | O=c1[nH]c(-c2ccccc2F)nc2c1sc(=S)n2Cc1ccccc1 | inconclusive: 10.3 µM [cytotoxic, partial curve, poor fit] | –
67 | COc1cccc(CN2CCC2(C)C(=O)Nc2cccc(NS(C)(=O)=O)c2)c1OC (stereo not drawn) | inactive | –
68 | CCOc1ccc(/C(C)=N/N2C(=O)C(CC(=O)Nc3ccc(OC)cc3[N+](=O)[O-])SC2=Nc2cccc(C)c2C)cc1 (stereo not drawn) | inconclusive: 18.4 µM [rising, partial curve, poor fit] | –

— PubChem BioAssay AID1347075 (National Center for Advancing Translational Sciences (NCATS), 2019)
